Measurements taken from patent US20040166509A1, “Detecting hormonally active compounds” (priority 2002, published 2004).
At least one compound was matched to its structure with a doubt left. Some results were stated once for a whole list of compounds, not compound by compound.

Columns and labels:
[1] = test system: hepatic mRNA of adult male SHMs; test: SHM cDNA macroarray (30 genes): hepatic gene expression profiles of exposed fish; assay type: in vivo, sheepshead minnow (SHM)
[2] = test system: Vtg mRNA; conditions: adult male SHM, aqueous exposure, treatment levels 68.8 ng/L to 788.33 ng/L; cited from earlier work
[3] = test system: SHM mRNA (Vtg α, choriogenin 2, transferrin); test: Northern blots and DD RT-PCR of SHM mRNA; assay type: in vivo, sheepshead minnow (SHM)
[4] = Estrogen receptor alpha (clone ID not given)
[5] = E2-treated vs control SHM, DD analysis
[6] = SHM treated with E2, Northern blots and DD RT-PCR

Row | Compound | ubiquitin-conjugating enzyme 9 expression ([1]; adult male SHM liver, aqueous pNP 11.81 μg/L 5 d, P<0.05, only in the pNP treatments) | induction of Vtg mRNA [2] | Regulation [1, 4] | ER α expression ([1]; adult male SHM liver, aqueous E2 65.14 ng/L 5 d, EE2 109 ng/L 4 d, DES 100 ng/L 4 d, pNP 11.81 μg/L 5 d, MXC 5.59 μg/L 13 d, ES 590.3 ng/L, vs untreated control) | expression of eight of the nine genes up or down-regulated by E2, EE2, DES, pNP and MXC ([1]; adult male SHM liver, aqueous ES 590.3 ng/L, resembled control pattern) | 3-hydroxy-3-methylglutaryl CoA reductase expression ([1]; adult male SHM liver, aqueous ES 590.3 ng/L, vs all other treatments and controls) | Regulation ([1]; clone SHM74-1: 3-hydroxy-3-methylglutaryl-CoA reductase) | transferrin by DD analysis [3, 5] | vitellogenin α and β and choriogenic protein (ZP2) on DD analysis [3, 5] | Vtg α mRNA levels [3, 6] | choriogenin 2 mRNA levels [3, 6] | transferrin mRNA [3, 6] | expression of the remaining genes of the 30 on the array ([1]; adult male SHM liver, aqueous E2 65.14 ng/L 5 d, vs untreated control) | Regulation ([1]; clone SHM2-1: vitellogenin alpha (2)) | Regulation ([1]; clone SHM11: Transferrin) | Regulation ([1]; clone SHM72-3: Coagulation Factor XI) | Regulation ([1]; clone SHM76-2: Alphal-microglobulin/bikunin precursor (AMBP) protein)
1 | CCCCCCCCCc1ccc(O)cc1 [4-NP, para-nonylphenol] | up-regulated (any cDNA clones in the macroarray experiments above a ˜1.66-fold induction were designated as up-regulated genes) | – | – | – | – | – | – | – | – | – | – | – | – | – | – | – | –
2 | O=S1OCC2C(CO1)C1(Cl)C(Cl)=C(Cl)C2(Cl)C1(Cl)Cl (stereo not drawn) [ES, endosulfan] | – | failed to induce | up-reg E2; EE2, | up-regulated (any cDNA clones in the macroarray experiments above a ˜1.66-fold induction were designated as up-regulated genes) | did not fluctuate | slightly down-regulated | dn-reg ES | – | – | – | – | – | – | – | – | – | –
3 | C[C@]12CC[C@@H]3c4ccc(O)cc4CC[C@H]3[C@@H]1CC[C@@H]2O [E2, estradiol] | – | – | up-reg E2; EE2, | – | – | – | – | down-regulated | up-regulated | increase | increase | decreases | did not appear to be differentially regulated | up-reg E2; EE2, | dn-reg E2; EE2, | up-reg E2; EE2, | d-reg E2; EE2,
